Oligonucleotides screened, 5′ to 3′:
TPP: TPP riboswitch RNA three-way junction, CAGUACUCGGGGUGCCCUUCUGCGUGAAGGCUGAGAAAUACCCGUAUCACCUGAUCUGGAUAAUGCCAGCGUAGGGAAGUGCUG. Hit rate about 0.7% of about 24,000 compounds.
PreQ1: PreQ1 riboswitch RNA pseudoknot, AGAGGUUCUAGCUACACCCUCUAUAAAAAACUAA. From B. subtilis. Hit rate about 0.7% of about 24,000 compounds.
SAM-II: SAM-II riboswitch RNA pseudoknot, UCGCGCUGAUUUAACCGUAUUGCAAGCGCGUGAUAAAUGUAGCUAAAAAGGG. Hit rate about 1% of about 21,000 compounds.

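The test is a small-molecule microarray: each compound is printed twice on a reactive slide, and binding shows as fluorescence of the labelled oligonucleotide after washing. The data file lists only calls. An earlier report of the laboratory on the PreQ1, TPP and SAM-II riboswitches (doi:10.1038/s41467-019-09493-3) used 1 µM RNA for 2 h and required a mean Z-score above 3 (spot signal-to-noise against the whole library), a score well above that on a control array, and duplicate spots agreeing (coefficient of variation under 100); it then also set aside compounds that hit other targets, which this list keeps. The cut-offs behind this list may differ. These are primary screening calls, not affinities; a compound without a hit may have attached poorly or may still bind in solution.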
Key: active = hit, inactive = tested without a hit.
The compounds are a random part of those screened.
A dash means that no call is listed here.

| SMILES | TPP | PreQ1 | SAM-II |
|---|---|---|---|
| `Cn1c(Nc2ccc(Cl)cc2)cc(=O)n(C)c1=O` | inactive | inactive | inactive |
| `Cc1cccc(-c2ncc(CNCC3OCCc4ccccc43)cn2)c1` (stereo not drawn) | inactive | inactive | inactive |
| `CC(NCc1ccccc1)C1COc2ccccc2O1` (stereo not drawn) | inactive | inactive | inactive |
| `CCC(C)C(Nc1ncnc2sc3c(c12)CCC3)C(=O)O` (stereo not drawn) | inactive | inactive | inactive |
| `CC1(C)CC(CCNCc2ccccn2)(c2cccc(C(F)(F)F)c2)CCO1` (stereo not drawn) | inactive | inactive | - |
| `Cc1ccc(Nc2cc(C(=O)O)nc3ccc(C)cc23)cc1` | inactive | inactive | inactive |
| `CCc1ccc(NCc2ccc(C(=O)O)s2)cc1` | inactive | inactive | - |
| `Cc1nc(C)c(CN2CCC3(CCC(=O)N(CCO)C3)CC2)s1` | inactive | inactive | inactive |
| `Cc1ccc(Nc2cc(N3CCN(S(C)(=O)=O)CC3)nc(C)n2)cc1` | inactive | inactive | - |
| `CS(=O)(=O)N1CCOC(Cn2ccnc2-c2ccc(CO)o2)C1` (stereo not drawn) | inactive | inactive | inactive |
| `CC1(C)Cc2c(sc3nc(NCCO)[nH]c(=O)c23)CO1` | inactive | inactive | inactive |
| `CCCC1(CO)CCCN(C(=O)C2CCC(CO)CC2)C1` (stereo not drawn) | inactive | inactive | inactive |
| `COc1ccc(NC2=NS(=O)(=O)C(c3ccc(Cl)cc3)=C2C)cc1` | inactive | inactive | - |
| `CCC1(C)CC(C(CCNCc2ccc(F)cc2)c2ccc(C)cc2)CCO1` (stereo not drawn) | inactive | inactive | inactive |
| `COc1ccc2c3c1OC1CC(O)C=CC31CCN(C)C2` (stereo not drawn) | inactive | inactive | inactive |
| `CSc1cccc(CC(=O)N2CCC(N3CCC(O)CC3)CC2)c1` | inactive | inactive | inactive |
| `CCCSC1=C(C#N)C2(CCCC2)C(C#N)=C(N)N1` | inactive | inactive | inactive |
| `CC(O)C(Nc1ncnc2ccccc12)C(=O)O` (stereo not drawn) | inactive | inactive | inactive |
| `O=S1(=O)N=C(Nc2ccc(Cl)cc2)c2ccccc21` | inactive | inactive | inactive |
| `CCOC(=O)C1=C(N)OC2=C(C(=O)CC(c3ccccc3)C2)C1c1cc(OC)ccc1OC` (stereo not drawn) | inactive | inactive | inactive |
| `COc1ccc(CCNc2nc(C)nc3sc4c(c23)CCCC4)cc1OC` | inactive | inactive | inactive |
| `Cc1ccc2nc(NS(=O)(=O)c3ccc(Cl)cc3)c(Nc3c(C)n[nH]c3C)nc2c1` | inactive | inactive | inactive |
| `Cc1cc(Nc2ccc(N3CCN(C(=O)c4ccccc4F)CC3)cc2)n2ncnc2n1` | inactive | inactive | inactive |
| `COc1cc(-c2nc3cc(N)ccc3o2)cc(OC)c1OC` | inactive | inactive | inactive |
| `Cc1cccc(CNc2nc3nc(C)c(Cl)c(C)n3n2)c1` | inactive | inactive | - |
| `CCc1c(C)nc2nncn2c1NCc1ccccc1` | inactive | inactive | - |
| `Cc1oc2cc(C#N)c(C#N)cc2c1C(C)O` (stereo not drawn) | inactive | inactive | inactive |
| `Cc1cc(Nc2ccc(C(=O)O)cc2)c2cc(Cl)ccc2n1` | inactive | inactive | inactive |
| `Cc1cc(Br)ccc1Nc1ncnc2c1nc1n2CCCC1` | inactive | inactive | - |
| `CC(C)Cc1nc(CN2CC3(CCNCC3)CC2C(=O)O)no1` (stereo not drawn) | inactive | inactive | inactive |
| `c1cncc(CN2CCC(n3ncc4c(N5CCOCC5)nc(-c5ccc6[nH]ccc6c5)nc43)CC2)c1` | inactive | inactive | inactive |
| `OCc1ccccc1CN1CCCCC1` | inactive | inactive | inactive |
| `OC(CN1c2ccccc2Sc2ccccc21)Cn1nnc2ccccc21` (stereo not drawn) | inactive | inactive | inactive |
| `CN1[C@H]2CC(O)C[C@H]1[C@H]1O[C@H]12` (stereo partly drawn) | inactive | inactive | inactive |
| `NC1(Cc2ccc(Cl)cc2)CCN(c2ncnc3[nH]ccc23)CC1` | inactive | inactive | inactive |
| `CCCCOc1ccc(CSCCN)cc1.Cl` | inactive | inactive | inactive |
| `Cc1cccc2cc(C(=O)NCC(CO)Cc3cccs3)n(C)c12` (stereo not drawn) | inactive | inactive | inactive |
| `O=C(CCn1cnc2ccccc2c1=O)N1Cc2cnn(CCO)c2C1` | inactive | inactive | inactive |
| `CCn1c(N)nc2cc(C(=O)NCCOc3nonc3C)cnc21` | inactive | inactive | inactive |
| `CCc1ccc(Nc2cc(-c3ccccc3)nc(C)n2)cc1` | inactive | inactive | - |
| `CCOC(=O)c1c(N)sc(C(=O)Nc2ccccc2F)c1C` | inactive | inactive | inactive |
| `Cc1cccc(OCc2nc3ccccc3n2CC(O)COc2ccccc2)c1` (stereo not drawn) | inactive | inactive | - |
| `O[C@@H]1CN(Cc2ccc3c(c2)OCO3)CC[C@H]1c1ccc2c(c1)OCO2` | inactive | inactive | inactive |
| `O=C(CCc1cc2n(n1)CCNC2)Nc1ccccc1CCc1ccccn1` | inactive | inactive | inactive |
| `CN(C)c1ccc2c(c1)Sc1cc(N(C)C)ccc1N2C(=O)c1ccccc1` | inactive | inactive | inactive |
| `Cc1ccc(CN(CCO)C(=O)C2CCCN(C(=O)N(C)C)C2)cc1` (stereo not drawn) | inactive | inactive | inactive |
| `CC1(C)CC(NC(=O)CCCOc2ccc(Cl)cc2Cl)CC(C)(C)N1` | inactive | inactive | inactive |
| `COc1ccc(-c2cnc3c(-c4ccc(OC)c(OC)c4)c(C)nn3c2N)cc1OC` | inactive | inactive | inactive |
| `CCOc1ccccc1NC(=O)CCc1c(C)nc2nc(CN)nn2c1C` | inactive | inactive | - |
| `Cc1ccc(Nc2cc(N3CCN(C(=O)c4ccc(Br)cc4)CC3)nc(C)n2)cc1` | inactive | inactive | - |
| `COc1cc(-c2cc(N)n(S(=O)(=O)c3ccccc3)n2)cc(OC)c1OC` | inactive | inactive | inactive |
| `Clc1cccc(-c2ccc(CNC3CN4CCC3CC4)o2)c1` (stereo not drawn) | inactive | inactive | inactive |
| `N[C@@H]1CC[C@@H](NS(=O)(=O)c2cc(Cl)c(Cl)s2)C1` | inactive | inactive | inactive |
| `Cc1ccc(OCC(O)CN2CCN(CCN3C(=O)c4cccc5cccc(c45)C3=O)CC2)c(C)c1.Cl.Cl` (stereo not drawn) | inactive | inactive | inactive |
| `CCOC(=O)C1=C(N)OC2=C(C(=O)CCC2)C12C(=O)Nc1ccc(Br)cc12` (stereo not drawn) | inactive | inactive | inactive |
| `Cc1cc2c(cc1C)[n+](C)cn2CC(O)COc1ccccc1C` (stereo not drawn) | inactive | inactive | inactive |
| `O=S(=O)(c1ccc(Cl)cc1)c1nc(-c2ccc(F)cc2)oc1NCC1CCCO1` (stereo not drawn) | inactive | inactive | - |
| `CCNc1nc(N)c(C(=O)C23CC4CC(CC(C4)C2)C3)s1` | inactive | inactive | inactive |
| `CCN(CCc1nc2ccccc2[nH]1)C(=O)c1cccc(C2CCCNC2)c1` (stereo not drawn) | inactive | inactive | inactive |
| `O=C1OC2(CCN(C(=O)c3ccc(CO)o3)CC2)CN1CCOc1ccccc1` | inactive | inactive | inactive |
| `Fc1ccccc1-c1ccc(CNCCCn2ccnc2)o1` | inactive | inactive | - |
| `C[C@]1(O)CCN(C(=O)c2ccc(-n3cnnn3)cc2)C[C@@H]1O` | inactive | inactive | inactive |
| `O=C1CCC2(CCN(C(=O)c3ccc4occc4c3)CC2)CN1CCCO` | inactive | inactive | inactive |
| `COc1cc(C2C(C#N)=C(N)OC3=C2C(=O)CC(C)(C)C3)ccc1OC(C)=O` (stereo not drawn) | inactive | inactive | inactive |
| `Br.Clc1ccccc1CNCc1cccnc1` | inactive | inactive | inactive |
| `CC(C)NC(=O)c1sc(N2CCCC2)nc1N` | inactive | inactive | inactive |
| `Cc1cc(C)cc(Nc2c(-c3cccc(O)c3)nc3ncccn23)c1` | inactive | inactive | inactive |
| `CCC(O)c1nc2ccccc2n1CCCOc1ccccc1C` (stereo not drawn) | inactive | inactive | - |
| `Cc1ccc(-c2nc3cnccn3c2Nc2ccc(Cl)cc2)cc1` | inactive | inactive | inactive |
| `Cc1ccc(Cn2c(NCC(C)O)nc3c2c(=O)n(C)c(=O)n3C)cc1` (stereo not drawn) | inactive | inactive | inactive |
| `CSCc1nc(CCNc2nc(N)nc3c2CCNCC3)cs1` | inactive | inactive | inactive |
| `Cc1ccc2nc(C(=O)O)cc(Nc3ccc(Cl)cc3)c2c1` | inactive | inactive | inactive |
| `CC(C)NCC=Cc1ccc(Cl)cc1.Cl` | inactive | inactive | inactive |
| `CCNc1nc(C)cc(N2CCN(S(=O)(=O)c3cc(C)ccc3C)CC2)n1` | inactive | inactive | - |
| `O=C(Nc1ccc2[nH]nc(-c3ccncc3)c2c1)[C@@H]1CCN(CC(=O)N2CCN(c3ccc(-c4ncccn4)cc3)CC2)C1` | inactive | inactive | inactive |

Repeated from the top, 8 entries:

SMILES,TPP,PreQ1,SAM-II
Cn1c(Nc2ccc(Cl)cc2)cc(=O)n(C)c1=O,inactive,inactive,inactive
Cc1cccc(-c2ncc(CNCC3OCCc4ccccc43)cn2)c1 (stereo not drawn),inactive,inactive,inactive
CC(NCc1ccccc1)C1COc2ccccc2O1 (stereo not drawn),inactive,inactive,inactive
CCC(C)C(Nc1ncnc2sc3c(c12)CCC3)C(=O)O (stereo not drawn),inactive,inactive,inactive
CC1(C)CC(CCNCc2ccccn2)(c2cccc(C(F)(F)F)c2)CCO1 (stereo not drawn),inactive,inactive,-
Cc1ccc(Nc2cc(C(=O)O)nc3ccc(C)cc23)cc1,inactive,inactive,inactive
CCc1ccc(NCc2ccc(C(=O)O)s2)cc1,inactive,inactive,-
Cc1nc(C)c(CN2CCC3(CCC(=O)N(CCO)C3)CC2)s1,inactive,inactive,inactive

Data from the ROBIN nucleic acid binder screens, doi:10.1002/anie.202211358.